This passage reports binding results from publication PMC10279758.

The target in this assay is T1, Arabidopsis thaliana Receptor-Like Protein 30, GFP-tagged (RLP30-GFP) (Arabidopsis thaliana) (UniProt Q9MA83).
T1 sequence: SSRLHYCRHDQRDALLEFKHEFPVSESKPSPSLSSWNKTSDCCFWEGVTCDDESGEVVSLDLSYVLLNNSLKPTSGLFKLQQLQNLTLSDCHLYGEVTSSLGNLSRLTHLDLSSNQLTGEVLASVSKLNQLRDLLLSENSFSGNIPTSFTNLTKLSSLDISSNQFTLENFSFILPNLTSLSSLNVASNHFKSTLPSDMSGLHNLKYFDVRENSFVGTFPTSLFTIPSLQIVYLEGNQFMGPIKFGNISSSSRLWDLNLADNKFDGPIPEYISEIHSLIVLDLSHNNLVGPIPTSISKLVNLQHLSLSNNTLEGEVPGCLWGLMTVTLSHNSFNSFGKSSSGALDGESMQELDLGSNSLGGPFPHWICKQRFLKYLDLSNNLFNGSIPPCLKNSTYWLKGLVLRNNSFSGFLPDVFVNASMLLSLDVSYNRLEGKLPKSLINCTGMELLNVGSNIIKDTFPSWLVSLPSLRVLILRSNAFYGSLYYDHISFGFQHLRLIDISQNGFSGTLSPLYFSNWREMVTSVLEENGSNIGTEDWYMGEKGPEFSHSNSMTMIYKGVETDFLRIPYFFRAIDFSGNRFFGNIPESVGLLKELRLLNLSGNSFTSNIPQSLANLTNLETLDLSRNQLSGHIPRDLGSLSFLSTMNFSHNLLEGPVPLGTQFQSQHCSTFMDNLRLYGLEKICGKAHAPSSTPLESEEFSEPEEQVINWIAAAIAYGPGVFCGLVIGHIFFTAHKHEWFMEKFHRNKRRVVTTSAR
Nature of the assay: co-IP; SCP^Ss-Myc (or Cys-to-Ser mutants) and GFP-tagged RLP transiently co-expressed in N. benthamiana; leaf protein extracts on day 2; immunoprecipitation with GFP-Trap beads; immunoblotting with tag-specific antibodies.

Results are given in words; binding and its absence hold for the method and conditions named. Binding seen in cells or lysates may run through a third protein. A result given as binding can be weak or reduced; the word gives no strength. Tags and fused reporters may be left off the sequences shown.

With “SMALL CYSTEINE-RICH PROTEIN FROM S. SCLEROTIORUM, myc-tagged (SCP^Ss-myc) (Sclerotinia sclerotiorum) (ligand)”, the binding result is “binds”.
